This note sets out measurements from PMC10803770.

By UniProt entry, the sequences of proteins in these tests, tags left out. Residues count along the entry.
UniProt Q9UBV2, residues 22-794: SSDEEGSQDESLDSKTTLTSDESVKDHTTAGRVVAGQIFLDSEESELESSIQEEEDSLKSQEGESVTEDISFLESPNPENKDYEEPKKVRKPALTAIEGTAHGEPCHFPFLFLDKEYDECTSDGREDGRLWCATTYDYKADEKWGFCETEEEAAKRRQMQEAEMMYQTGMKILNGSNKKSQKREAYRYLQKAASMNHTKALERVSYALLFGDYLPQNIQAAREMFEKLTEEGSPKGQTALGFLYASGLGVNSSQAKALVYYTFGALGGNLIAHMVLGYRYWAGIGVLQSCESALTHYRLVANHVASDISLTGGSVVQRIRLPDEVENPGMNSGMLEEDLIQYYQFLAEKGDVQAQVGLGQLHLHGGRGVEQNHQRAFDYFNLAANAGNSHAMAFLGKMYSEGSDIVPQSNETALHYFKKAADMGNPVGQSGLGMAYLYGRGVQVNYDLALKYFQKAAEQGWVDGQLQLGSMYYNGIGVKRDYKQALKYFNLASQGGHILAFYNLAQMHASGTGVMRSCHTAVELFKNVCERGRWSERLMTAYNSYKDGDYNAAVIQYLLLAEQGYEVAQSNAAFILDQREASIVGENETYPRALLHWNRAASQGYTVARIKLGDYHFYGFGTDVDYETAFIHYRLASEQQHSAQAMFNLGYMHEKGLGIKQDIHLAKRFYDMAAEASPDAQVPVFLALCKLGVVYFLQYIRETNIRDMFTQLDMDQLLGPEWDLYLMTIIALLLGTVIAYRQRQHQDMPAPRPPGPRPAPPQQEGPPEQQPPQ

No constants are given. Whether binding was seen depends on the method and setting. In cells and extracts the contact can be indirect. Here binding means that the protein was enriched with, or labelled near, the bait; the list need not be complete.

Experiment [1] addresses SEL1L (human (endogenous in HEK293T)) (UniProt Q9UBV2). As to the kind of experiment: affinity purification with mass spectrometry; anti-SEL1L IP and LC-MS/MS of the endogenous SEL1L interactome, WT vs. SEL1L KO HEK293T cells; 10 mg lysate.
The target is the same in experiment [2]. The experiment is described as follows: affinity purification with mass spectrometry; anti-SEL1L IP and LC-MS/MS, substrate screen: HRD1 KO compared with WT, SEL1L KO and IgG samples of HEK293T cells; Group A hits also detected in WT, Group B hits only in HRD1 KO; 10 mg lysate.

B1: OS9 (protein, UniProt Q13438 26-667)
chain: GGVGSLNLEELSEMRYGIEILPLPVMGGQSQSSDVVIVSSKYKQRYECRLPAGAIHFQREREEETPAYQGPGIPELLSPMRDAPCLLKTKDWWTYEFCYGRHIQQYHMEDSEIKGEVLYLGYYQSAFDWDDETAKASKQHRLKRYHSQTYGNGSKCDLNGRPREAEVRFLCDEGAGISGDYIDRVDEPLSCSYVLTIRTPRLCPHPLLRPPPSAAPQAILCHPSLQPEEYMAYVQRQADSKQYGDKIIEELQDLGPQVWSETKSGVAPQKMAGASPTKDDSKDSDFWKMLNEPEDQAPGGEEVPAEEQDPSPEAADSASGAPNDFQNNVQVKVIRSPADLIRFIEELKGGTKKGKPNIGQEQPVDDAAEVPQREPEKERGDPERQREMEEEEDEDEDEDEDEDERQLLGEFEKELEGILLPSDRDRLRSEVKAGMERELENIIQETEKELDPDGLKKESERDRAMLALTSTLNKLIKRLEEKQSPELVKKHKKKRVVPKKPPPSPQPTEEDPEHRVRVRVTKLRLGGPNQDLTVLEMKRENPQLKQIEGLVKELLEREGLTAAGKIEIKIVRPWAEGTEEGARWLTDEDTRNLKEIFFNILVPGAEEAQKERQRQKELESNYRRVWGSPGGEGTGDLDEFDF
Consider B1, for which the binding result in experiment [1] and in experiment [2] was “binds” in each case.
